Measured values reported in the supplement of paper PMC8728848.
The other results are listed elsewhere or left out.

Columns and labels:
Test in all cases: glycan array binding signal (z-score within array); higher = stronger binding
Details in all cases: glycan notation: IUPAC condensed, linker removed
Neu5Ac(a2-3)Gal = target: Neu5Ac(a2-3)Gal
In short: (§1)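 Glycan array binding is given as a within-array Z-score, which can be read as non-binding when negative. The arrays, 3228 of them, came from the Consortium for Functional Glycomics database and were retained only where the protein sequence was available. Z-scores were averaged across arrays of the same protein sequence at different concentrations or buffers and across linkers.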

[1] = target: Neu5Ac(a2-3)Gal(b1-3)GalNAc
In short: as §1

[2] = target: Neu5Ac(a2-3)Gal(b1-3)GalNAc(b1-3)Gal(a1-4)Gal(b1-4)Glc
In short: as §1

[3] = target: Neu5Ac(a2-3)Gal(b1-3)GalNAc(b1-4)[Neu5Ac(a2-3)]Gal(b1-4)Glc
In short: as §1

[4] = target: Neu5Ac(a2-3)Gal(b1-3)GalNAc(b1-4)[Neu5Ac(a2-8)Neu5Ac(a2-3)]Gal(b1-4)Glc
In short: as §1

[5] = target: Neu5Ac(a2-3)Gal(b1-3)GalNAc6S
In short: as §1

[6] = target: Neu5Ac(a2-3)Gal(b1-3)GlcNAc
In short: as §1

[7] = target: Neu5Ac(a2-3)Gal(b1-3)GlcNAc(b1-2)Man
In short: as §1

[8] = target: Neu5Ac(a2-3)Gal(b1-3)GlcNAc(b1-2)Man(a1-3)[GlcNAc(b1-4)][Neu5Ac(a2-3)Gal(b1-3)GlcNAc(b1-2)Man(a1-6)]Man(b1-4)GlcNAc(b1-4)GlcNAc
In short: as §1

[9] = target: Neu5Ac(a2-3)Gal(b1-3)GlcNAc(b1-2)Man(a1-3)[Neu5Ac(a2-3)Gal(b1-3)GlcNAc(b1-2)Man(a1-6)]Man(b1-4)GlcNAc(b1-4)GlcNAc
In short: as §1

[10] = target: Neu5Ac(a2-3)Gal(b1-3)GlcNAc(b1-2)[Neu5Ac(a2-3)Gal(b1-3)GlcNAc(b1-4)]Man(a1-6)[Neu5Ac(a2-3)Gal(b1-3)GlcNAc(b1-2)Man(a1-3)]Man(b1-4)GlcNAc(b1-4)GlcNAc
In short: as §1

[11] = target: Neu5Ac(a2-3)Gal(b1-3)GlcNAc(b1-3)Gal(b1-3)GlcNAc
In short: as §1

[12] = target: Neu5Ac(a2-3)Gal(b1-3)GlcNAc(b1-3)Gal(b1-4)GlcNAc
In short: as §1

[13] = target: Neu5Ac(a2-3)Gal(b1-3)GlcNAc(b1-3)GalNAc
In short: as §1

[14] = target: Neu5Ac(a2-3)Gal(b1-3)GlcNAc(b1-4)Gal(b1-4)Glc
In short: as §1

[15] = target: Neu5Ac(a2-3)Gal(b1-3)GlcNAc(b1-6)GalNAc
In short: as §1

[16] = target: Neu5Ac(a2-3)Gal(b1-3)GlcNAc6S
In short: as §1

[17] = target: Neu5Ac(a2-3)Gal(b1-3)[Fuc(a1-4)]GlcNAc
In short: as §1

[18] = target: Neu5Ac(a2-3)Gal(b1-3)[Fuc(a1-4)]GlcNAc(b1-3)Gal(b1-3)[Fuc(a1-4)]GlcNAc
In short: as §1

[19] = target: Neu5Ac(a2-3)Gal(b1-3)[Fuc(a1-4)]GlcNAc(b1-3)Gal(b1-4)[Fuc(a1-3)]GlcNAc
In short: as §1

[20] = target: Neu5Ac(a2-3)Gal(b1-3)[GlcNAc(b1-6)]GalNAc
In short: as §1

[21] = target: Neu5Ac(a2-3)Gal(b1-3)[Neu5Ac(a2-6)]GalNAc
In short: as §1

[22] = target: Neu5Ac(a2-3)Gal(b1-3)[Neu5Ac(a2-6)]GlcNAc(b1-3)[Fuc(a1-3)[Gal(b1-4)]GlcNAc(b1-6)]Gal(b1-4)Glc
In short: as §1

[23] = target: Neu5Ac(a2-3)Gal(b1-3)]Neu5Ac(a2-3)Gal(b1-4)]GlcNAc
In short: as §1

Neu5Ac(a2-3)Gal(b1-4)Glc = target: Neu5Ac(a2-3)Gal(b1-4)Glc
In short: as §1

[24] = target: Neu5Ac(a2-3)Gal(b1-4)GlcNAc
In short: as §1

[25] = target: Neu5Ac(a2-3)Gal(b1-4)GlcNAc(b1-2)Man
In short: as §1

[26] = target: Neu5Ac(a2-3)Gal(b1-4)GlcNAc(b1-2)Man(a1-3)[GlcNAc(b1-4)][Neu5Ac(a2-3)Gal(b1-4)GlcNAc(b1-2)Man(a1-6)]Man(b1-4)GlcNAc(b1-4)GlcNAc
In short: as §1

[27] = target: Neu5Ac(a2-3)Gal(b1-4)GlcNAc(b1-2)Man(a1-3)[Neu5Ac(a2-3)Gal(b1-4)GlcNAc(b1-2)Man(a1-6)]Man(b1-4)GlcNAc(b1-4)GlcNAc
In short: as §1

[28] = target: Neu5Ac(a2-3)Gal(b1-4)GlcNAc(b1-2)Man(a1-3)[Neu5Ac(a2-3)Gal(b1-4)GlcNAc(b1-2)Man(a1-6)]Man(b1-4)GlcNAc(b1-4)[Fuc(a1-6)]GlcNAc
In short: as §1

[29] = target: Neu5Ac(a2-3)Gal(b1-4)GlcNAc(b1-2)Man(a1-3)[Neu5Ac(a2-6)Gal(b1-4)GlcNAc(b1-2)Man(a1-6)]Man(b1-4)GlcNAc(b1-4)GlcNAc
In short: as §1

[30] = target: Neu5Ac(a2-3)Gal(b1-4)GlcNAc(b1-2)[Neu5Ac(a2-3)Gal(b1-4)GlcNAc(b1-4)]Man(a1-3)[GlcNAc(b1-4)][Neu5Ac(a2-3)Gal(b1-4)GlcNAc(b1-2)[Neu5Ac(a2-3)Gal(b1-4)GlcNAc(b1-6)]Man(a1-6)]Man(b1-4)GlcNAc(b1-4)GlcNAc
In short: as §1

[31] = target: Neu5Ac(a2-3)Gal(b1-4)GlcNAc(b1-2)[Neu5Ac(a2-3)Gal(b1-4)GlcNAc(b1-4)]Man(a1-3)[GlcNAc(b1-4)][Neu5Ac(a2-3)Gal(b1-4)GlcNAc(b1-4)Man(a1-6)]Man(b1-4)GlcNAc(b1-4)GlcNAc
In short: as §1

[32] = target: Neu5Ac(a2-3)Gal(b1-4)GlcNAc(b1-2)[Neu5Ac(a2-3)Gal(b1-4)GlcNAc(b1-6)]Man(a1-6)[Neu5Ac(a2-3)Gal(b1-4)GlcNAc(b1-2)Man(a1-3)]Man(b1-4)GlcNAc(b1-4)GlcNAc
In short: as §1

[33] = target: Neu5Ac(a2-3)Gal(b1-4)GlcNAc(b1-2)[Neu5Ac(a2-3)Gal(b1-4)GlcNAc(b1-6)]Man(a1-6)[Neu5Ac(a2-3)Gal(b1-4)GlcNAc(b1-2)Man(a1-3)][GlcNAc(b1-4)]Man(b1-4)GlcNAc(b1-4)GlcNAc
In short: as §1

[34] = target: Neu5Ac(a2-3)Gal(b1-4)GlcNAc(b1-3)Gal
In short: as §1

[35] = target: Neu5Ac(a2-3)Gal(b1-4)GlcNAc(b1-3)Gal(b1-3)GlcNAc
In short: as §1

[36] = target: Neu5Ac(a2-3)Gal(b1-4)GlcNAc(b1-3)Gal(b1-4)GlcNAc
In short: as §1

[37] = target: Neu5Ac(a2-3)Gal(b1-4)GlcNAc(b1-3)Gal(b1-4)GlcNAc(b1-2)Man(a1-3)[Neu5Ac(a2-3)Gal(b1-4)GlcNAc(b1-3)Gal(b1-4)GlcNAc(b1-2)Man(a1-6)]Man(b1-4)GlcNAc(b1-4)GlcNAc
In short: as §1

[38] = target: Neu5Ac(a2-3)Gal(b1-4)GlcNAc(b1-3)Gal(b1-4)GlcNAc(b1-3)Gal(b1-4)GlcNAc
In short: as §1

[39] = target: Neu5Ac(a2-3)Gal(b1-4)GlcNAc(b1-3)Gal(b1-4)GlcNAc(b1-3)Gal(b1-4)GlcNAc(b1-2)Man(a1-3)[Neu5Ac(a2-3)Gal(b1-4)GlcNAc(b1-3)Gal(b1-4)GlcNAc(b1-3)Gal(b1-4)GlcNAc(b1-2)Man(a1-6)]GalNAc
In short: as §1

[40] = target: Neu5Ac(a2-3)Gal(b1-4)GlcNAc(b1-3)Gal(b1-4)GlcNAc(b1-3)GalNAc
In short: as §1

[41] = target: Neu5Ac(a2-3)Gal(b1-4)GlcNAc(b1-3)Gal(b1-4)GlcNAc(b1-3)[Neu5Ac(a2-3)Gal(b1-4)GlcNAc(b1-3)Gal(b1-4)GlcNAc(b1-6)]GalNAc
In short: as §1

[42] = target: Neu5Ac(a2-3)Gal(b1-4)GlcNAc(b1-3)Gal(b1-4)GlcNAc(b1-6)[Gal(b1-3)]GalNAc
In short: as §1

[43] = target: Neu5Ac(a2-3)Gal(b1-4)GlcNAc(b1-3)Gal(b1-4)[Fuc(a1-3)]GlcNAc
In short: as §1

B1: Drgal1 (Danio rerio) (protein)
chain: MAGVLIQNMSFKVGQTLTITGVPKPDSTNFAINIGHSPEDIALHMNPRFDAHGDQCTIVCNSFQSGSWCEEHRDDNFPFIQDKEFQIKITFTNEEFLVTLPDGSEIHFPNRQGSEKYKYMYFEGEVRIQGVEIK
Neu5Ac(a2-3)Gal
  glycan array binding signal (z-score): -0.162
[1]
  glycan array binding signal (z-score): -0.008
[2]
  glycan array binding signal (z-score): -0.231
[3]
  glycan array binding signal (z-score): 0.468
[4]
  glycan array binding signal (z-score): 0.043
[5]
  glycan array binding signal (z-score): -0.412
[6]
  glycan array binding signal (z-score): -0.152
[7]
  glycan array binding signal (z-score): -0.651
[8]
  glycan array binding signal (z-score): 0.604
[9]
  glycan array binding signal (z-score): -0.163
[10]
  glycan array binding signal (z-score): -0.888
[11]
  glycan array binding signal (z-score): -0.311
[12]
  glycan array binding signal (z-score): -0.431
[13]
  glycan array binding signal (z-score): -0.512
[14]
  glycan array binding signal (z-score): -0.529
[15]
  glycan array binding signal (z-score): 0.18
[16]
  glycan array binding signal (z-score): -0.86
[17]
  glycan array binding signal (z-score): -0.317
[18]
  glycan array binding signal (z-score): -0.401
[19]
  glycan array binding signal (z-score): 0.029
[20]
  glycan array binding signal (z-score): -0.761
[21]
  glycan array binding signal (z-score): -0.388
[22]
  glycan array binding signal (z-score): -0.383
[23]
  glycan array binding signal (z-score): 0.301
Neu5Ac(a2-3)Gal(b1-4)Glc
  glycan array binding signal (z-score): -0.017
[24]
  glycan array binding signal (z-score): -0.346
[25]
  glycan array binding signal (z-score): -0.253
[26]
  glycan array binding signal (z-score): -0.187
[27]
  glycan array binding signal (z-score): 0.02
[28]
  glycan array binding signal (z-score): -0.242
[29]
  glycan array binding signal (z-score): -0.741
[30]
  glycan array binding signal (z-score): -0.575
[31]
  glycan array binding signal (z-score): -0.28
[32]
  glycan array binding signal (z-score): 0.197
[33]
  glycan array binding signal (z-score): 3.36
[34]
  glycan array binding signal (z-score): -0.372
[35]
  glycan array binding signal (z-score): -0.084
[36]
  glycan array binding signal (z-score): 0.603
[37]
  glycan array binding signal (z-score): -0.139
[38]
  glycan array binding signal (z-score): -0.462
[39]
  glycan array binding signal (z-score): 0.637
[40]
  glycan array binding signal (z-score): -0.307
[41]
  glycan array binding signal (z-score): -0.016
[42]
  glycan array binding signal (z-score): -0.656
[43]
  glycan array binding signal (z-score): -0.022
